Data as given in PubChem BioAssay AID1259254 (NCATS, 2017).
Assay: 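Gene knock-downs that lead to re-replication, shown by excess G2 DNA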 (primary screen). Cell system: human HCT116 colorectal cancer cells. Knock-down reagent: single siRNA against human genes. Duration: 3 days. Detection: 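Imaged Hoechst DNA stain sorts each cell into a cycle phase by DNA amount; per plate, G2 fraction set to 0% for non-targeting and 100% for GMNN siRNA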. Reading the numbers: G2 robust z-score: higher = more G2 cells, more excess DNA replication. Active means: 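Active siRNAs have a G2 robust z of 5 or more median absolute deviations over the median, which in these data means about 38% or higher of GMNN control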.
The whole screen tested about 59,000 reagents; shown is a part drawn at random. About 1,550 of all reagents (2.6%) count as active. 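G2 share is only a proxy for re-replication; each gene was hit by three separate siRNAs, and active genes were retested.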 Unmarked entries are inactive. The numbers tell different reagents against one gene apart. Not all columns of the deposit are shown. Not stated in the record: the amount of reagent.

The opening 2 entries, ahead of the listing:
{"gene symbol": "TMEM185A (transmembrane protein 185A)", "siRNA no.": 1, "G2 robust z-score": -1.07}
{"gene symbol": "TMEM185A (transmembrane protein 185A)", "siRNA no.": 2, "G2 robust z-score": -0.601}

The listing, from the first entry:
{"gene symbol": "TMEM185A (transmembrane protein 185A)", "siRNA no.": 1, "G2 robust z-score": -1.07}
{"gene symbol": "TMEM185A (transmembrane protein 185A)", "siRNA no.": 2, "G2 robust z-score": -0.601}
{"gene symbol": "TMEM185A (transmembrane protein 185A)", "siRNA no.": 3, "G2 robust z-score": 0.17}
{"gene symbol": "RPS28 (ribosomal protein S28)", "siRNA no.": 1, "G2 robust z-score": 3.81}
{"gene symbol": "RPS28 (ribosomal protein S28)", "siRNA no.": 2, "G2 robust z-score": 4.53}
{"gene symbol": "RPS28 (ribosomal protein S28)", "siRNA no.": 3, "G2 robust z-score": 3.77}
{"gene symbol": "CTR9 (CTR9 component of Paf1/RNA polymerase II complex)", "siRNA no.": 1, "G2 robust z-score": -0.557}
{"gene symbol": "CTR9 (CTR9 component of Paf1/RNA polymerase II complex)", "siRNA no.": 2, "G2 robust z-score": -0.441}
{"gene symbol": "CTR9 (CTR9 component of Paf1/RNA polymerase II complex)", "siRNA no.": 3, "G2 robust z-score": -0.877}
{"gene symbol": "PRR20A (proline rich 20A)", "siRNA no.": 1, "G2 robust z-score": -0.231}
{"gene symbol": "PRR20A (proline rich 20A)", "siRNA no.": 2, "G2 robust z-score": -0.592}
{"gene symbol": "PRR20A (proline rich 20A)", "siRNA no.": 3, "G2 robust z-score": -1.27}
